In the supplement of paper PMC12819154, “High-throughput peptide-centric local stability assay extends protein–ligand identification to membrane proteins, tissues and bacteria” (Nature Structural & Molecular Biology, 2025) one finds log2 fold change data, which are given here for 7 targets.

By UniProt entry, the sequences of proteins in these tests, tags left out. Where a name states a change or a piece, a line headed by the entry shows the natural chain unless it says otherwise.
UniProt P51148: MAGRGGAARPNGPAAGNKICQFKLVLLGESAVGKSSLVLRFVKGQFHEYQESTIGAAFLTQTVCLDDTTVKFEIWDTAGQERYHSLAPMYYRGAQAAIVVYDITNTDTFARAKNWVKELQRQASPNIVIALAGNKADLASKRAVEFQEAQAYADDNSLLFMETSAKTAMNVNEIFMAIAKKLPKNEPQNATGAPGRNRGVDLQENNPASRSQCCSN
UniProt P46734: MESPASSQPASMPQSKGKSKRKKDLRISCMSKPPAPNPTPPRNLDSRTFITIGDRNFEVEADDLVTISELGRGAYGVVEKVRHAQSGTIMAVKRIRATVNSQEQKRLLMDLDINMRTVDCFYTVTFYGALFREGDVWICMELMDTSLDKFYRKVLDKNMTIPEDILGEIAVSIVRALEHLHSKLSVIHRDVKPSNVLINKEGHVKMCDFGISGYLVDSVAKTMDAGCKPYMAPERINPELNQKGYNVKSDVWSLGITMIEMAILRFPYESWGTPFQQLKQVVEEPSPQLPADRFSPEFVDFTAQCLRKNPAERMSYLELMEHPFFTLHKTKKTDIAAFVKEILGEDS
UniProt P50897: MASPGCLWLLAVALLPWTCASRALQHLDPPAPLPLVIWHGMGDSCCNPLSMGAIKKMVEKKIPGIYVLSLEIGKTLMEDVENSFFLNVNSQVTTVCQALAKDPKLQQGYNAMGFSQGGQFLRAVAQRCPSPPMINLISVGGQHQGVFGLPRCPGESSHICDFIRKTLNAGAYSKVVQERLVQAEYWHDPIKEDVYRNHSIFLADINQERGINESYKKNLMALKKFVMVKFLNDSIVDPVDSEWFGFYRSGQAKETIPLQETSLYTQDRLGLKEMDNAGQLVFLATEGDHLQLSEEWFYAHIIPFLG
UniProt P47895: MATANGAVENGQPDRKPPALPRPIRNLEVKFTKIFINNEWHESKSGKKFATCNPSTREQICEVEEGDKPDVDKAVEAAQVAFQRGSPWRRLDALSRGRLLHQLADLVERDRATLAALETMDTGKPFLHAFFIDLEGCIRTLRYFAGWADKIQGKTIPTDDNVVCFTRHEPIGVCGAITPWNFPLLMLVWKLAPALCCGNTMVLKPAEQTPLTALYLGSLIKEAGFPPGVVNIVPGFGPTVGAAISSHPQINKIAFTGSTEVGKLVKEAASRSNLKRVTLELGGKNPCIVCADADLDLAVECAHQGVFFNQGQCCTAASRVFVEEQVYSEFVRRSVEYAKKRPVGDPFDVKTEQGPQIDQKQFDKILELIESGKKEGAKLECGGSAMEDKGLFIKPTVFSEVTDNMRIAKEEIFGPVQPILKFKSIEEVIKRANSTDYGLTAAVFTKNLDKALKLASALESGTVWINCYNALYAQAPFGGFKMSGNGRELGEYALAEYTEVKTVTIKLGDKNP
UniProt P49815: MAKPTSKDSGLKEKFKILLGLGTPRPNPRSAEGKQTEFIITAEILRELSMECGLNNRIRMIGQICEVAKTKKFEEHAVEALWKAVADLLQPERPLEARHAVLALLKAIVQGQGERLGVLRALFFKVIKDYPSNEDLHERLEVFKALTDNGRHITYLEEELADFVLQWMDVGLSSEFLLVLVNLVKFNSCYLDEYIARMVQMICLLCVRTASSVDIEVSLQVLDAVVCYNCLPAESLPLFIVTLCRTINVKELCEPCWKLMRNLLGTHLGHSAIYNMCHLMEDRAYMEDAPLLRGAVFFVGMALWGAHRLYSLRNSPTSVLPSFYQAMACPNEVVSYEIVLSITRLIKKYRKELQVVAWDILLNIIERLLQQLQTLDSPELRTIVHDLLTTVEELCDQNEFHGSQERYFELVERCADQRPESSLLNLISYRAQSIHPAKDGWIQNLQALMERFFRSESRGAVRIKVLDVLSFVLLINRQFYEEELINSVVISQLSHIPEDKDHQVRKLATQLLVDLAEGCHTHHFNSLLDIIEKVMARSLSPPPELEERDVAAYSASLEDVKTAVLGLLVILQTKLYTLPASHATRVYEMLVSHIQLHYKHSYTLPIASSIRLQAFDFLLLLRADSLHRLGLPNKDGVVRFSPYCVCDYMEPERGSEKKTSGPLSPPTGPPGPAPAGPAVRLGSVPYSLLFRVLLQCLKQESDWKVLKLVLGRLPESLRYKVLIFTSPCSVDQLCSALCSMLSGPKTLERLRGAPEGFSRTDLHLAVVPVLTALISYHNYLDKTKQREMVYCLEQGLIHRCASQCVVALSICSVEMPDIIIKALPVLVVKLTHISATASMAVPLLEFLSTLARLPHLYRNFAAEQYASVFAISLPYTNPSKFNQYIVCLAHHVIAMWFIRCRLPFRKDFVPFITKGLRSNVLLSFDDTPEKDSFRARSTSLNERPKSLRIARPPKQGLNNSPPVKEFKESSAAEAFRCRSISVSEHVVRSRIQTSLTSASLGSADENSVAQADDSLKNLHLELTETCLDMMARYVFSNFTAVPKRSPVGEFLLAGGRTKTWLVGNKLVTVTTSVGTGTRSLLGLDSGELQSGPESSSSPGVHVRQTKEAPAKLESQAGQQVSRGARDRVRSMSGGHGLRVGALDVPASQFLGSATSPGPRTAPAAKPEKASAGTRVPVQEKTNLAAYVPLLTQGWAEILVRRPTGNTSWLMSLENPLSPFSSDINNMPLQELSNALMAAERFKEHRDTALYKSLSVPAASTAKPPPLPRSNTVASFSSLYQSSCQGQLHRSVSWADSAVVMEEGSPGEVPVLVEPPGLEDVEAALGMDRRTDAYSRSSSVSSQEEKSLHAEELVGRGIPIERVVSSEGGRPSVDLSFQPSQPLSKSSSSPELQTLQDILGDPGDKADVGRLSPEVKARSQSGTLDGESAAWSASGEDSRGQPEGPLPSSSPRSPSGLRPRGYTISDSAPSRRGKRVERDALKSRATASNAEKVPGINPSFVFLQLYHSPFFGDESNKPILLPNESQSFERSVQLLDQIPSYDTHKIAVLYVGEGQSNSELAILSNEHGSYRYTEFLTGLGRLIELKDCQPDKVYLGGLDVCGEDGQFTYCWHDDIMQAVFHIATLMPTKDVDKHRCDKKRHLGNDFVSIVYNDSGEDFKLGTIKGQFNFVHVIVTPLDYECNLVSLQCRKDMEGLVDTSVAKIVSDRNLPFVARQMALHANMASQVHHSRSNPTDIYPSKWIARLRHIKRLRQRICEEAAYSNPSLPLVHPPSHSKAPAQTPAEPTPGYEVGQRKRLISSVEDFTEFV
UniProt P51580: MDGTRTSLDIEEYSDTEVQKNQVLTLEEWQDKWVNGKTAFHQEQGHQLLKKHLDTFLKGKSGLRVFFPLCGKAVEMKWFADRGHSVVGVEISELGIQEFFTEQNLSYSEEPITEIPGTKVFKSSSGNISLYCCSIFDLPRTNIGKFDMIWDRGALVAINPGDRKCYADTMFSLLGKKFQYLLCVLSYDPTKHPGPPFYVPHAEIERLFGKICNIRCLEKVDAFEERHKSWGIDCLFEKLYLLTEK
UniProt P49959: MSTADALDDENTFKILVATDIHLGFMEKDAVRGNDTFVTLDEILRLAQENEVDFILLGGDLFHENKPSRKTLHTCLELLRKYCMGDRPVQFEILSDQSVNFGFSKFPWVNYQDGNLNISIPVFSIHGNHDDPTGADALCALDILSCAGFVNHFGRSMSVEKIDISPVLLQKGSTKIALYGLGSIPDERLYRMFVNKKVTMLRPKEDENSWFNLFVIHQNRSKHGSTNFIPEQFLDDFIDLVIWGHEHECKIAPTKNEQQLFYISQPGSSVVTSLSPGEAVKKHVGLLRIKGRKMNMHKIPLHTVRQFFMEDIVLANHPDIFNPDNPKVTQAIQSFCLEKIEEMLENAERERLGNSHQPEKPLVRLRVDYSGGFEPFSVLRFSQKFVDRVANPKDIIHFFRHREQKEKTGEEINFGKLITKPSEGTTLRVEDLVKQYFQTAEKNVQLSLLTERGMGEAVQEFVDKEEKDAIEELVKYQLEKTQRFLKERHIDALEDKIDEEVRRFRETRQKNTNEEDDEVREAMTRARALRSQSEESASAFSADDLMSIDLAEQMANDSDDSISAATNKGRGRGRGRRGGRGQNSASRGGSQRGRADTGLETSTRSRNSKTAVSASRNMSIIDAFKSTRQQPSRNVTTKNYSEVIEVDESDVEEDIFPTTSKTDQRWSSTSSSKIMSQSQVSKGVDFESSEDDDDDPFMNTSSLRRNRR

The other results are listed elsewhere or left out. Most values lie at the level of the controls, where differences are scatter.

Compound in this experiment: CN[C@@H]1C[C@H]2O[C@@](C)([C@@H]1OC)n1c3ccccc3c3c4c(c5c6ccccc6n2c5c31)C(=O)NC4 [staurosporine]
The experiment is described as follows: log2 fold change of tryptic peptide abundance, ligand vs vehicle (limited proteolysis) (log2 ratio); higher = more trypsin-susceptible (destabilized). The following applies: ligand concentration: 20 uM; sample: K562 cleared lysate; digestion: 4 min, 22 C (HT-PELSA RT4min, Orbitrap Astral).
Take “RAB5C (peptide sequence: GVDLQENNPASR, peptide start residue: 199) (UniProt P51148)”: the log2 fold change was -0.0601.
Then “UniProt P46734 (peptide sequence: LLMDLDINMR, peptide start residue: 107)”, with 0.109; and “PPT1 (peptide sequence: TLNAGAYSK, peptide start residue: 166) (UniProt P50897)”, with 0.218.
Regarding “ALDH1A3 (peptide sequence: IAFTGSTEVGK, peptide start residue: 259) (UniProt P47895)”, the log2 fold change is -0.0882.
As for “TSC2 (peptide sequence: SNVLLSFDDTPEKDSFR, peptide start residue: 918) (UniProt P49815)”, the figure is -0.321.
As for “TPMT (peptide sequence: GALVAINPGDRK, peptide start residue: 153) (UniProt P51580)”, the figure is 0.425.
As for “UniProt P49959 (peptide sequence: IMSQSQVSK, peptide start residue: 674)”, the figure is -0.101.
